# Measurements from PubChem BioAssay AID192 (DTP/NCI, 2004).
# The list is a part of this screen's results and no random one: it gathers tests that were run many times, whatever their T/C, doses with no T/C, and many T/C values between a quarter and a half above the control. Other doses and runs of a compound stand elsewhere. T/C: endpoint of the treated group in % of that of the vehicle group. Some doses have a count of surviving animals in place of a T/C: the source holds a T/C of zero for them, seemingly a mark for toxic or unscored doses. Some doses without a T/C left all or most animals alive at the check, yet need not have been tolerated: survival well below the control is almost never listed, so the zero probably covers shortened survival too. Counts of survivors are from the toxicity check (mostly the fifth day) where no day follows; animals may have died later. Schedule codes are those of the source, read here as Q, the interval in days (D) or hours (H), X, the number of doses. Some entries were tested several times; the values are given in rising order. Some molecules as drawn cover several salts, stereoisomers or complexes of the source; a dose is that of the sample tested. For survival time, this PubChem deposit counts one and a half times the control or more as active, and values a quarter to a half above the control carry no call in these data; other NCI protocols may use other cut-offs. Some T/C values carry the count of animals alive at the toxicity check (mostly the fifth day); where none is given, no animal had died by that day. Signs of the kind (2×) stand for listed records that agree.
# Test system: BDF1 mice, B16 melanoma ip, median survival T/C
# Test: NCI In Vivo Anticancer Drug Screen. Data for tumor model B16 Melanoma (intraperitoneal) in B6D2F1 (BDF1) mice
# Conditions: T/C endpoint: median survival time, higher T/C = longer survival
# In short: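 Tumor-bearing mice received test compound or vehicle. Survival or tumor size was then measured in both groups. The treated-group figure was divided by the control-group figure.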
# [1] = dose: 32.0 mg/kg/injection, schedule: Q01DX001 (ip), vehicle: water
# [2] = dose: 80.0 mg/kg/injection, schedule: Q01DX009 (ip), vehicle: saline
# [3] = dose: 400.0 mg/kg/injection, schedule: Q01DX009 (ip), vehicle: saline with Tween-80
# [4] = dose: 400.0 mg/kg/injection, schedule: Q01DX009 (ip), vehicle: Klucel (hydroxypropylcellulose) (HPC)
# [5] = dose: 200.0 mg/kg/injection, schedule: Q01DX009 (ip), vehicle: saline
# [6] = dose: 4.0 mg/kg/injection, schedule: Q01DX009 (ip), vehicle: saline
# [7] = dose: 8.0 mg/kg/injection, schedule: Q01DX009 (ip), vehicle: saline
# [8] = dose: 16.0 mg/kg/injection, schedule: Q01DX009 (ip), vehicle: saline
# [9] = dose: 100.0 mg/kg/injection, schedule: Q01DX009 (ip), vehicle: saline
# [10] = dose: 12.5 mg/kg/injection, schedule: Q01DX009 (ip), vehicle: carboxymethylcellulose (CMC)
# [11] = dose: 25.0 mg/kg/injection, schedule: Q01DX009 (ip), vehicle: carboxymethylcellulose (CMC)
smiles,measurement,setting,value
O=C(CCCN1CCN(c2ccccn2)CC1)c1ccc(F)cc1,survivor count,"dose: 6.25 mg/kg/injection, schedule: Q01DX009 (ip), vehicle: saline with Tween-80",7 of 10
same,survivor count,"dose: 12.5 mg/kg/injection, schedule: Q01DX009 (ip), vehicle: saline with Tween-80",9 of 10
same,survivor count,"dose: 25.0 mg/kg/injection, schedule: Q01DX009 (ip), vehicle: saline with Tween-80",8 of 10
same,survivor count,"dose: 50.0 mg/kg/injection, schedule: Q01DX009 (ip), vehicle: saline with Tween-80",8 of 10
same,survivor count,"dose: 100.0 mg/kg/injection, schedule: Q01DX009 (ip), vehicle: saline with Tween-80",8 of 10
CN(C)CCCN=Cc1ccc(O)cc1O.CN(C)CCCN=Cc1ccc(O)cc1O.[Ni+2],survivor count,"dose: 50.0 mg/kg/injection, schedule: Q04DX003 (ip), vehicle: saline with Tween-80",10 of 10
COc1cccc2c1C(=O)c1c(O)c3c(c(O)c1C2=O)CC(O)(C(=O)CO)CC3OC1CC(N)C(O)C(C)O1 (stereo unspecified),T/C,"dose: 0.56 mg/kg/injection, schedule: Q01DX001 (ip), vehicle: water",147 % of control
same,T/C,"dose: 2.59 mg/kg/injection, schedule: Q01DX004 (ip), vehicle: other",149 % of control
same,T/C,"dose: 2.9 mg/kg/injection, schedule: Q01DX009 (ip), vehicle: saline",128 % of control
same,T/C,"dose: 4.2 mg/kg/injection, schedule: Q01DX001 (ip), vehicle: other",125 % of control
same,T/C,"dose: 6.9 mg/kg/injection, schedule: Q01DX001 (ip), vehicle: other",148 % of control
same,T/C,"dose: 9.4 mg/kg/injection, schedule: Q01DX001 (ip), vehicle: water",134 % of control
same,T/C,"dose: 11.4 mg/kg/injection, schedule: Q04DX003 (ip), vehicle: saline",129 % of control
same,T/C,"dose: 11.5 mg/kg/injection, schedule: Q01DX001 (ip), vehicle: other",137 % of control
same,T/C,"dose: 11.7 mg/kg/injection, schedule: Q01DX009 (ip), vehicle: saline",137 % of control
same,T/C,"dose: 19.2 mg/kg/injection, schedule: Q01DX001 (ip), vehicle: other",144 % of control
same,T/C,"dose: 19.2 mg/kg/injection, schedule: Q01DX001 (ip), vehicle: water",143 % of control
same,T/C,"dose: 20.0 mg/kg/injection, schedule: Q01DX004 (ip), vehicle: other",131 % of control
same,T/C,"dose: 22.8 mg/kg/injection, schedule: Q04DX003 (ip), vehicle: saline",135 % of control
same,T/C,[1],133 % of control
same,survivor count,[1],6 of 10
same,survivor count,"dose: 36.0 mg/kg/injection, schedule: Q01DX001 (ip), vehicle: water",8 of 8
same,T/C,"dose: 40.0 mg/kg/injection, schedule: Q01DX009 (ip), vehicle: saline",130 % of control
same,survivor count,"dose: 46.8 mg/kg/injection, schedule: Q01DX009 (ip), vehicle: saline",10 of 10
same,survivor count,"dose: 72.0 mg/kg/injection, schedule: Q01DX001 (ip), vehicle: water",7 of 8
same,survivor count,[2],10 of 10
same,survivor count,"dose: 88.8 mg/kg/injection, schedule: Q01DX001 (ip), vehicle: water",3 of 10 on day 9 and 6 of 10
same,T/C,"dose: 120.0 mg/kg/injection, schedule: Q01DX001 (ip), vehicle: water",132 % of control
same,survivor count,"dose: 148.0 mg/kg/injection, schedule: Q01DX001 (ip), vehicle: water",3 of 10 on day 9
same,survivor count,"dose: 160.0 mg/kg/injection, schedule: Q01DX009 (ip), vehicle: saline",5 of 10 and 10 of 10
same,survivor count,"dose: 182.4 mg/kg/injection, schedule: Q04DX003 (ip), vehicle: saline",10 of 10
same,T/C,"dose: 240.0 mg/kg/injection, schedule: Q01DX001 (ip), vehicle: water",144 % of control
same,survivor count,"dose: 300.0 mg/kg/injection, schedule: Q01DX001 (ip), vehicle: water",8 of 10 and 10 of 10
C[C@@H]1C[C@@]2(O[C@@H]2C)C(=O)O[C@@H]2CCN3CC=C(COC(=O)[C@]1(C)O)[C@H]23,survivor count,[2],2 of 6
O=C(O)C1(C(=O)O)CCCCC1.[NH2-].[NH2-].[Pt+2],T/C,"dose: 3.12 mg/kg/injection, schedule: Q01DX009 (ip), vehicle: saline",128 % of control
CC(=O)OC1CCC(C2CCCCC2)CC1 (stereo unspecified),survivor count,[3],9 of 10
CCCCC(CC)C(O)C1CCCCC1O (stereo unspecified),survivor count,[4],4 of 6
COc1ccc(N=O)c(O)c1,survivor count,[5],5 of 6
N[C@H](C(=O)O)[C@@H]1CC(Cl)=NO1,T/C,"dose: 0.5 mg/kg/injection, schedule: Q01DX009 (ip), vehicle: saline","93 [8 of 10 alive], 98, 100, 101, 104 [9 of 10 alive], 106 % of control"
same,T/C,"dose: 1.0 mg/kg/injection, schedule: Q01DX009 (ip), vehicle: saline","102, 104, 106, 109 (2×), 110 [9 of 10 alive], 112, 116 % of control"
same,T/C,"dose: 2.0 mg/kg/injection, schedule: Q01DX009 (ip), vehicle: saline","100, 103, 106, 106 [9 of 10 alive], 109, 112, 116, 131 % of control"
same,T/C,[6],"101 [9 of 10 alive], 105, 107, 113, 114, 116, 119 % of control"
same,survivor count,[6],10 of 10
same,T/C,[7],"91, 102, 122 % of control"
same,survivor count,[7],10 of 10
same,T/C,[8],89 % of control
same,survivor count,[8],9 of 10 and 10 of 10
same,survivor count,"dose: 32.0 mg/kg/injection, schedule: Q01DX009 (ip), vehicle: saline",10 of 10
Cn1c2ccccc2c(=O)c2ccc(Cl)cc21,survivor count,"dose: 200.0 mg/kg/injection, schedule: Q01DX009 (ip), vehicle: Klucel (hydroxypropylcellulose) (HPC)",10 of 10
same,survivor count,[4],10 of 10
Nc1c(Cl)cc(C(=O)NC2CC2)cc1Cl,survivor count,[9],10 of 10
Cc1c(Cl)cccc1NC(=O)Nc1ccccc1Cl,survivor count,"dose: 300.0 mg/kg/injection, schedule: Q01DX009 (ip), vehicle: Klucel (hydroxypropylcellulose) (HPC)",9 of 10
O=C(O)COc1ccc([N+](=O)[O-])cc1,survivor count,[3],10 of 10
COc1ccc2cc3[n+](cc2c1OC)CCc1cc2c(cc1-3)OCO2,survivor count,"dose: 0.75 mg/kg/injection, schedule: Q01DX009 (ip), vehicle: carboxymethylcellulose (CMC)",10 of 10
same,survivor count,"dose: 6.0 mg/kg/injection, schedule: Q01DX009 (ip), vehicle: carboxymethylcellulose (CMC)",10 of 10
same,survivor count,"dose: 10.0 mg/kg/injection, schedule: Q01DX009 (ip), vehicle: Klucel (hydroxypropylcellulose) (HPC)",10 of 10
same,T/C,[10],136 % of control [9 of 10 alive]
same,survivor count,[10],8 of 10
same,survivor count,"dose: 20.0 mg/kg/injection, schedule: Q01DX009 (ip), vehicle: Klucel (hydroxypropylcellulose) (HPC)",9 of 10
same,survivor count,"dose: 20.0 mg/kg/injection, schedule: Q02DX005 (ip), vehicle: Klucel (hydroxypropylcellulose) (HPC)",10 of 10
same,survivor count,"dose: 25.0 mg/kg/injection, schedule: Q01DX009 (ip), vehicle: Klucel (hydroxypropylcellulose) (HPC)",6 of 10
same,T/C,[11],131 % of control
same,survivor count,[11],1 of 10
same,survivor count,"dose: 40.0 mg/kg/injection, schedule: Q01DX009 (ip), vehicle: Klucel (hydroxypropylcellulose) (HPC)",0 of 10
same,survivor count,"dose: 40.0 mg/kg/injection, schedule: Q02DX005 (ip), vehicle: Klucel (hydroxypropylcellulose) (HPC)",4 of 10
same,survivor count,"dose: 50.0 mg/kg/injection, schedule: Q01DX009 (ip), vehicle: carboxymethylcellulose (CMC)",0 of 10
CCN(CC)CCCN1c2ccccc2Sc2ccc(Cl)cc21,survivor count,"dose: 25.0 mg/kg/injection, schedule: Q01DX009 (ip), vehicle: saline",0 of 10 and 10 of 10
same,survivor count,"dose: 50.0 mg/kg/injection, schedule: Q01DX009 (ip), vehicle: saline",0 of 10 and 10 of 10
same,survivor count,[9],0 of 10 and 10 of 10
same,survivor count,[5],0 of 10 and 10 of 10
same,survivor count,"dose: 400.0 mg/kg/injection, schedule: Q01DX009 (ip), vehicle: saline",0 of 10 and 10 of 10
